In the supplement of paper PMC10849652:
The other results are listed elsewhere or left out.

Protein sequences, listed by entry. Tags and fused reporters are not part of them. Lines headed by an entry give the natural chain unless they say otherwise; changes in a name come on top.
UniProt O43312: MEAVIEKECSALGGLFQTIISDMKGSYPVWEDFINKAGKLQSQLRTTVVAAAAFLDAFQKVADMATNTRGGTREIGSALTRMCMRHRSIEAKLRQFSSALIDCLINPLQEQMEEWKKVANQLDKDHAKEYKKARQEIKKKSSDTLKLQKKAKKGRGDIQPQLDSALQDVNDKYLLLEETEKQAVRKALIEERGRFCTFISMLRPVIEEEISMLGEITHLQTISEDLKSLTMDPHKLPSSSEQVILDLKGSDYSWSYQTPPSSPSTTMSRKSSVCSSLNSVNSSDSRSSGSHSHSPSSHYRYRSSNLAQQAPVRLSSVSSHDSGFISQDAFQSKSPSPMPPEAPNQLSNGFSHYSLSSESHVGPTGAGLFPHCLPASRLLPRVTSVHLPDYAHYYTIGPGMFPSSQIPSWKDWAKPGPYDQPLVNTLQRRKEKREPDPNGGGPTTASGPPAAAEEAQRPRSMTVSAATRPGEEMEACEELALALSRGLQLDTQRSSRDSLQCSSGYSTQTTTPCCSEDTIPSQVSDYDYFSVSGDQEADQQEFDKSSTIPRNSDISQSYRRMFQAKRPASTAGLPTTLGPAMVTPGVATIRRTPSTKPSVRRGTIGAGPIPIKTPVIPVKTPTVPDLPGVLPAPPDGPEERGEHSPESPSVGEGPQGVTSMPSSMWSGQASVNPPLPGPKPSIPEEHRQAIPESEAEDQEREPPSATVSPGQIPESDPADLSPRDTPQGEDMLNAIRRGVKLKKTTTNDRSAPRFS
UniProt Q14764, whole entry, looked up: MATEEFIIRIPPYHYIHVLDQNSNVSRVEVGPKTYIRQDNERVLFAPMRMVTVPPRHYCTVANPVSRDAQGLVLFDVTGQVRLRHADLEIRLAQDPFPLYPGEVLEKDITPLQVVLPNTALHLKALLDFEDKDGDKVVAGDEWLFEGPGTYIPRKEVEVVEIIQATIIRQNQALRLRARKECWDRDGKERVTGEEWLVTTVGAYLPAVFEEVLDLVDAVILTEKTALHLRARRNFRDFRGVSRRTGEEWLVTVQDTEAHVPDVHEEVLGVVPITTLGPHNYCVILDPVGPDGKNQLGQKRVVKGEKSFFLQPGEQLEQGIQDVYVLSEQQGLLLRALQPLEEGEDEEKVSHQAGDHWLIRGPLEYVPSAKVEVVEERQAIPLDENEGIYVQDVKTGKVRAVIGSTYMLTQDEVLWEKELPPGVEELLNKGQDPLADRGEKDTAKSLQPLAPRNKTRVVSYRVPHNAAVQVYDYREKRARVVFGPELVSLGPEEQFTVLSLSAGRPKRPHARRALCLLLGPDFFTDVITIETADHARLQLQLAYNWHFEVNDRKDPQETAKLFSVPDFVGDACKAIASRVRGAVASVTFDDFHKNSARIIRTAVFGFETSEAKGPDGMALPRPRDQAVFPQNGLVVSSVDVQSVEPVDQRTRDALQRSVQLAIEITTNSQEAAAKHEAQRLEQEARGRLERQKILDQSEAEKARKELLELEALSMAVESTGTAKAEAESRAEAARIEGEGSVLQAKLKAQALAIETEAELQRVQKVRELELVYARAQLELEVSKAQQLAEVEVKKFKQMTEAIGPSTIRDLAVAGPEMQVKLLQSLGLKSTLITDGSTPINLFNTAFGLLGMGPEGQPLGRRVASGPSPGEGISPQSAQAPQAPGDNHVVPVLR
UniProt P05976, whole entry, looked up: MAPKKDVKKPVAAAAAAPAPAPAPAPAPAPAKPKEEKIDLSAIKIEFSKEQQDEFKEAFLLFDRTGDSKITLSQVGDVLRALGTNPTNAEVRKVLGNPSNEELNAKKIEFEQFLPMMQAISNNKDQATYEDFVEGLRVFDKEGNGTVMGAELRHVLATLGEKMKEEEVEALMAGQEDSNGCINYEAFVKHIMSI
UniProt P03897, whole entry, looked up: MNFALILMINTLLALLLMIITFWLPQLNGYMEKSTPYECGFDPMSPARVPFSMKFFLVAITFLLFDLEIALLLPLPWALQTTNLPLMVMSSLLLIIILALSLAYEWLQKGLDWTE
UniProt Q93083: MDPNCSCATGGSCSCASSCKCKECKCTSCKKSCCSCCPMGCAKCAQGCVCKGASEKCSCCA
UniProt Q9H2K0, whole entry, looked up: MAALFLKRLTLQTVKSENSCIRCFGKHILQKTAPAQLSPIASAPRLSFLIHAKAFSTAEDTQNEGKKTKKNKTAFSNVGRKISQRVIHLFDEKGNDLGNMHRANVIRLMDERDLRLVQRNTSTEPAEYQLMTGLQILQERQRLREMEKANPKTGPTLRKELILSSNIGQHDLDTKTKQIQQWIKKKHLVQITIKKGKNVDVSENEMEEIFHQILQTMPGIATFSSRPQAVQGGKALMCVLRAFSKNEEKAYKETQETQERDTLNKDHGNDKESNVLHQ
UniProt Q9UGC7: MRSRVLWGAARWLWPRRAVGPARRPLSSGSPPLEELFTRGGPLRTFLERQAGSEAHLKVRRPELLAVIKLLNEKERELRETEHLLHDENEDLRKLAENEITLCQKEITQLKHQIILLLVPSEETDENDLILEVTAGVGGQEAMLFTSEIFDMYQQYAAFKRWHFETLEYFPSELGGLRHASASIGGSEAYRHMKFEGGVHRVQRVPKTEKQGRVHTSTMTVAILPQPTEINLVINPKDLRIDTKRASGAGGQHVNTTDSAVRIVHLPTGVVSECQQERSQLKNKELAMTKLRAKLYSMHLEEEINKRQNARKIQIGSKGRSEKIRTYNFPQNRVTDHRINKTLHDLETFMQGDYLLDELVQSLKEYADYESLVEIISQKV
UniProt Q9BQG0: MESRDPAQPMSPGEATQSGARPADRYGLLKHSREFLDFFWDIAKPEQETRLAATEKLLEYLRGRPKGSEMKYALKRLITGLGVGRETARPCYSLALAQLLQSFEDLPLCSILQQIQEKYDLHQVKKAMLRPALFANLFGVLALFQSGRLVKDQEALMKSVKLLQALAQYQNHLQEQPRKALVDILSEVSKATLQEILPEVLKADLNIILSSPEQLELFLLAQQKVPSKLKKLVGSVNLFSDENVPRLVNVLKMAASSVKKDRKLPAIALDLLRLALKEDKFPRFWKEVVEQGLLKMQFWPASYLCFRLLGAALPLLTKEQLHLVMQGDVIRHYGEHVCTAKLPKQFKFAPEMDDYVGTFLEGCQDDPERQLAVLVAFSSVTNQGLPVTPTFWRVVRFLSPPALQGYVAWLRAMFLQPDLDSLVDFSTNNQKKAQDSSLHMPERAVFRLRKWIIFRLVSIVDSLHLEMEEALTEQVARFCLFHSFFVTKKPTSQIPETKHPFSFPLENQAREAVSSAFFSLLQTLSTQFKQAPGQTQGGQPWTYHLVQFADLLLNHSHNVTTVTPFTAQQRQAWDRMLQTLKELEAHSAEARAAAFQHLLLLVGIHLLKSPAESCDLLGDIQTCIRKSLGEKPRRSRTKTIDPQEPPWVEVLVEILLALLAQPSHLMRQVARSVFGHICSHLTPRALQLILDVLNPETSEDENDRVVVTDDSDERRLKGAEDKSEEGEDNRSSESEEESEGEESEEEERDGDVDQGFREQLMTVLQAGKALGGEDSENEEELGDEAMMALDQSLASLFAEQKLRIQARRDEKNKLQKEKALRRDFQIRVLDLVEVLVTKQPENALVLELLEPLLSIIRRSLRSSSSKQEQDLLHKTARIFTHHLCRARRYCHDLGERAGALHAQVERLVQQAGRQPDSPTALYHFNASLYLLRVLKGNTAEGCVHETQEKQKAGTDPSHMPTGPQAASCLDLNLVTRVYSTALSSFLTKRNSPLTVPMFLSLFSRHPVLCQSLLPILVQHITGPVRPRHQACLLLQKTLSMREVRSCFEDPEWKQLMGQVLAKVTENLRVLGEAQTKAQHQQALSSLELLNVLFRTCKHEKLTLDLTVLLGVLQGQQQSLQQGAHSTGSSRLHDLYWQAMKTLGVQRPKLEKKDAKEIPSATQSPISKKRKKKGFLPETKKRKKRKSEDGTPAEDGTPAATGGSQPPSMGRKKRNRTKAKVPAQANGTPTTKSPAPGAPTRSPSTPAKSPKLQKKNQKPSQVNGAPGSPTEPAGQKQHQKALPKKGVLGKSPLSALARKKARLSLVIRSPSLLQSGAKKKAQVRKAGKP
UniProt P03923, whole entry, looked up: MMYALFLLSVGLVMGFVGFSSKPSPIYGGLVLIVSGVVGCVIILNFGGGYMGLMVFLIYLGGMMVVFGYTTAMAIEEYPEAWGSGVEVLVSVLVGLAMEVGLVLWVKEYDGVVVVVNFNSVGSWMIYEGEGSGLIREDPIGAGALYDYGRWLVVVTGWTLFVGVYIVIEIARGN
UniProt Q9BT17: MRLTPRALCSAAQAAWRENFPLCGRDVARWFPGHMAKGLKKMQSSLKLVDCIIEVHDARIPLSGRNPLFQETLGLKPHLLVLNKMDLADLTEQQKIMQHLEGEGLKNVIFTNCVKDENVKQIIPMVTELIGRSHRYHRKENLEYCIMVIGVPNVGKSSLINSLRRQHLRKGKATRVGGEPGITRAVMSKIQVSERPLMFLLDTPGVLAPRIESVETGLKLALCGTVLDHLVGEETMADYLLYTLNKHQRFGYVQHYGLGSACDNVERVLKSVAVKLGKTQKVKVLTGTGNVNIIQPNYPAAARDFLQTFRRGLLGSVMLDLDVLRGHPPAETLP
UniProt Q9UKX2, whole entry, looked up: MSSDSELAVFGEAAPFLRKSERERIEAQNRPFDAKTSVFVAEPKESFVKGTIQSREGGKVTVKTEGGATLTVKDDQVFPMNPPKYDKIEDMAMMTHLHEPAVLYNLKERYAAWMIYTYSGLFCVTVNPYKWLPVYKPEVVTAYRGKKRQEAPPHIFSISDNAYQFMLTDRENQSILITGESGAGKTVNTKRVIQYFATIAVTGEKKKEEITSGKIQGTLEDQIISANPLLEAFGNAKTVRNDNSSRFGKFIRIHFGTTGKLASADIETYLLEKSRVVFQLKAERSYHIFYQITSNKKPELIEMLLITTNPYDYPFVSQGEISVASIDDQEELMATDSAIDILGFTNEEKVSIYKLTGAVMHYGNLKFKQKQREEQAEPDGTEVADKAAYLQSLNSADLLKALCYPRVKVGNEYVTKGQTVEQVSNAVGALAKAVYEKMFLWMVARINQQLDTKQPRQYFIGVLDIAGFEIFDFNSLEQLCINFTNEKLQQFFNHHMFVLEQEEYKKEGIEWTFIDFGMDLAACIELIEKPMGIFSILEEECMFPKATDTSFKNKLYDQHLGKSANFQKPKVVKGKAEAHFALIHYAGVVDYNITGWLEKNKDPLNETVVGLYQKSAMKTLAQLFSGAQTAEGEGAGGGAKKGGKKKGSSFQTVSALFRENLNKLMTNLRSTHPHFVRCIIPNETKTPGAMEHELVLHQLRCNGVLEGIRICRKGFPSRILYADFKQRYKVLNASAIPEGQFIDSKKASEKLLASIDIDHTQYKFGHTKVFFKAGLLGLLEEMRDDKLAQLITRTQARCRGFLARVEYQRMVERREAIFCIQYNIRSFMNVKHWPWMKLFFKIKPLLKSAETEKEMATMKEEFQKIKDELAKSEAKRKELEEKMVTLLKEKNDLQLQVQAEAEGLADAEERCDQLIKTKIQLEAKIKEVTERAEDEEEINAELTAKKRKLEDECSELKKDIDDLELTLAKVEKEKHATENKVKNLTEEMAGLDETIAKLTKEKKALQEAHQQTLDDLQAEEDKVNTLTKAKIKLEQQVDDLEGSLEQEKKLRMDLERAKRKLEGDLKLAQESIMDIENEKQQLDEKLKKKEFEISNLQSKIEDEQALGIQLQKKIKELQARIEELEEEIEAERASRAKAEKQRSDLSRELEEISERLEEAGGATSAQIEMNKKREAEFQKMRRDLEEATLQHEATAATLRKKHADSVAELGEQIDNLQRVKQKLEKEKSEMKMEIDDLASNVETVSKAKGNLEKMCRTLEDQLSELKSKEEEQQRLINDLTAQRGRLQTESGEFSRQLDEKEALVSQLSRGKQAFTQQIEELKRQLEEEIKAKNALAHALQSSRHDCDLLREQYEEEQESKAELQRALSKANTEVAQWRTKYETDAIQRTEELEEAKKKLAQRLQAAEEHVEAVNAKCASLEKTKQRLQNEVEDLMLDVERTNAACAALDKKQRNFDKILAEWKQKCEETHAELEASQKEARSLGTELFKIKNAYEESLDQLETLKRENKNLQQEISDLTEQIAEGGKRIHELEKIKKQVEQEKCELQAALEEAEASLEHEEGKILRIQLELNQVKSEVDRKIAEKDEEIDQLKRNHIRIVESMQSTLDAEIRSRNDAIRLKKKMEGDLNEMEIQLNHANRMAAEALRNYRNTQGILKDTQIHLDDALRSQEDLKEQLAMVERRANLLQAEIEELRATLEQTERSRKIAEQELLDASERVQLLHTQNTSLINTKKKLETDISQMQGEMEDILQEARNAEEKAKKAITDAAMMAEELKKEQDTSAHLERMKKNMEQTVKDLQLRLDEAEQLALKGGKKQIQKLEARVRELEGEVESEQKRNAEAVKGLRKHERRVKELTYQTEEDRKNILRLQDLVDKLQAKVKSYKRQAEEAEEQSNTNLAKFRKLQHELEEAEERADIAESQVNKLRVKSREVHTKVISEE

What was measured:
Experiment in all cases: log2 fold change, soluble protein after heating vs DMSO (PISA); higher = thermal stabilisation; K562 cells, 10 uM, 30 min; active = over 0.2 and 3.5 SD of the protein, either way, in both replicates (recomputed)
vemurafenib = compound: CCCS(=O)(=O)Nc1ccc(F)c(C(=O)c2c[nH]c3ncc(-c4ccc(Cl)cc4)cc23)c1F [vemurafenib]
Outline: (§1)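 Thermal stability values are relative to control samples and come from duplicates. They are expressed as log2 fold changes. For measurement, K562 cells (2×10^6 cells/mL) received 10 μM compound for 30 min, and aliquots were heated for 3 min over 48°C-58°C, pooled, and extracted at 4°C in PBS with 0.5% NP-40. Soluble protein, the supernatant after 21,000xg for 90 min, was quantified by TMTpro 16plex LC-MS/MS with equalised channel sums.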

[1] = compound: CCn1cc(-c2ccnc3[nH]c(-c4cccc(CN(C)C)c4)cc23)c(-c2ccc(NC(=O)N(C)C)cc2)n1
Outline: as §1

[2] = compound: CN(C)CC(=O)Nc1ccc2[nH]c(=O)c3ccccc3c2c1
Outline: as §1

[3] = compound: CN1CCC(CNc2ccc3ncc(-c4cccc(OC(F)(F)F)c4)n3n2)CC1
Outline: as §1

[4] = compound: CC1=CC=C(C=C1)SC2=C3C=C(SC3=CN=C2)C(=O)N
Outline: as §1

[5] = compound: CCCS(=O)(=O)Nc1ccc(F)c(C(=O)c2c[nH]c3ncc(Cl)cc23)c1F
Outline: as §1

[6] = compound: CCCc1cc(C)[nH]c(=O)c1CNC(=O)c1cc(-c2ccnc(N3CCN(C)CC3)c2)cc2c1cnn2C(C)C
Outline: as §1

volasertib = compound: CC[C@@H]1C(=O)N(C)c2cnc(Nc3ccc(C(=O)N[C@H]4CC[C@H](N5CCN(CC6CC6)CC5)CC4)cc3OC)nc2N1C(C)C [volasertib]
Outline: as §1

[7] = compound: CC[C@@H]1C(=O)N(C)c2cnc(Nc3ccc(C(=O)NC4CCN(C)CC4)cc3OC)nc2N1C1CCCC1
Outline: as §1

barasertib = compound: CCN(CCCOc1ccc2c(Nc3cc(CC(=O)Nc4cccc(F)c4)[nH]n3)ncnc2c1)CCOP(=O)(O)O [barasertib]
Outline: as §1

rosiglitazone = compound: CN(CCOC1=CC=C(C=C1)C[C@H]2C(=O)NC(=O)S2)C3=CC=CC=N3 (racemic) [rosiglitazone]
Outline: as §1

[8] = compound: CC1=C(C=C(C=C1)NC(=O)C2=CC(=CC=C2)N(C)C)NC(=O)C3=CC=C(C=C3)O
Outline: as §1

[9] = compound: CC1=NC(=CC=C1)C2=C(N=C(N2)C(C)(C)C)C3=CC4=NC=CN=C4C=C3
Outline: as §1

givinostat = compound: CCN(CC)Cc1ccc2cc(COC(=O)Nc3ccc(C(=O)NO)cc3)ccc2c1 [givinostat]
Outline: as §1

[10] = compound: CC[C@H](C)N1C=C(C2=C(C=C(C=C21)C3=CN=C(C=C3)N4CCNCC4)C(=O)NCC5=C(C=C(NC5=O)C)C)C
Outline: as §1

[11] = compound: CCn1c(C(=O)N(C2CC2)C2CC2)cc2c3c(ncn3C)c(Nc3cc(C)n(C)n3)nc21
Outline: as §1

[12] = compound: CN1C2=C(C3=C1C(=O)N(N=C3)CC4=CC(=CC=C4)N)SC(=C2)S(=O)C
Outline: as §1

[13] = compound: CC1=C(C=C(C=C1)NC(=O)C2=CC(=CC=C2)C(C)(C)C#N)NC3=CC4=C(C=C3)N=CN(C4=O)C
Outline: as §1

Nexturastat A = compound: CCCCN(Cc1ccc(C(=O)NO)cc1)C(=O)Nc1ccccc1 [Nexturastat A]
Outline: as §1

epoxomicin = compound: CC[C@H](C)[C@@H](C(=O)N[C@@H]([C@@H](C)O)C(=O)N[C@@H](CC(C)C)C(=O)[C@]1(CO1)C)NC(=O)[C@H]([C@@H](C)CC)N(C)C(=O)C [epoxomicin]
Outline: as §1

Measured: log2 fold change

MYO1B (UniProt O43795)
inactive: vemurafenib 0.156 | [1] -0.051 | [2] -0.254 | [3] 0.17

MTSS1 isoform 5 (UniProt O43312)
inactive: [4] 0.012 | vemurafenib -0.024 | [5] 0.086 | [6] 0.284 | volasertib -0.021 | [2] 0.047

MVP (UniProt Q14764)
inactive: [7] 1.31

MYL1 (UniProt P05976)
inactive: barasertib -0.053 | rosiglitazone -0.016

MT-ND3 (UniProt P03897)
inactive: [8] 0.173 | [9] -0.042 | givinostat 0.107 | barasertib -0.166 | [10] -0.079 | [11] -0.163 | rosiglitazone 0.092

MT1L (UniProt Q93083)
inactive: [8] 0.201 | [4] 0.058 | [5] 0.026 | [6] -0.159 | givinostat -0.034 | [7] -0.161 | volasertib 0.071 | [10] -0.018 | [11] -0.024 | [1] -0.122 | [12] 0.432 | [3] -0.139

MTIF3 (UniProt Q9H2K0)
inactive: [13] 0.01 | Nexturastat A 0.134 | vemurafenib 0.071 | givinostat 0 | barasertib -0.305 | [10] 0.09 | epoxomicin -0.01 | [11] 0.005 | [1] 0.012 | [2] -0.031 | rosiglitazone 0.002 | [12] 0.091 | [3] -0.02

MTRF1L (UniProt Q9UGC7)
inactive: [8] -0.074 | [4] -0.005 | Nexturastat A 0.062 | vemurafenib 0.034 | [5] 0.067 | [6] -0.004 | givinostat 0.012 | barasertib 0.07 | [7] 0.096 | volasertib -0.047 | [10] 0.07 | epoxomicin 0.144 | [11] 0.001 | [1] 0.011 | [2] 0.028 | rosiglitazone 0.068 | [12] 0.006 | [3] 0.02

MYBBP1A isoform 2 (UniProt Q9BQG0)
inactive: [8] 0.091 | [9] -0.02 | Nexturastat A 0.432 | givinostat 0.277 | barasertib -0.028 | [7] -0.009 | [10] -0.006 | epoxomicin -0.194 | [11] 0.02 | [1] 0.036 | rosiglitazone -0.055 | [12] 0.077 | [3] 0.014

MT-ND6 (UniProt P03923)
inactive: [13] 0.232 | [9] -0.175 | vemurafenib 0.107 | [6] -0.009 | barasertib 0.101 | [7] 0.046 | [10] -0.004 | [2] 0.118 | rosiglitazone -0.011 | [12] 0.218

MTMR9 (UniProt Q96QG7)
inactive: [8] 0.205 | [4] -0.071 | [9] 0.013 | Nexturastat A 0.014 | vemurafenib 0.049 | [5] 0.036 | [6] 0.049 | givinostat 0.086 | barasertib 0 | [7] 0.009 | volasertib -0.098 | [10] -0.053 | epoxomicin -0.004 | [11] -0.003 | [1] -0.086 | [2] 0.044 | rosiglitazone -0.019 | [12] -0.015 | [3] -0.035

Quoted from the results shown (2 entries):
MT1L (UniProt Q93083)
inactive: [8] 0.201 | [4] 0.058 | [5] 0.026 | [6] -0.159 | givinostat -0.034 | [7] -0.161 | volasertib 0.071 | [10] -0.018 | [11] -0.024 | [1] -0.122 | [12] 0.432 | [3] -0.139

MTIF3 (UniProt Q9H2K0)
inactive: [13] 0.01 | Nexturastat A 0.134 | vemurafenib 0.071 | givinostat 0 | barasertib -0.305 | [10] 0.09 | epoxomicin -0.01 | [11] 0.005 | [1] 0.012 | [2] -0.031 | rosiglitazone 0.002 | [12] 0.091 | [3] -0.02

Additional records.

MTDH (UniProt E5RJU9)
inactive: [9] 0.048

MTG1 (UniProt Q9BT17)
inactive: [8] -0.195 | [4] -0.051 | [9] 0.25 | Nexturastat A -0.271 | vemurafenib 0.133 | [5] 0.013 | [6] 0.062 | givinostat 0.032 | barasertib 0.043 | volasertib -0.057 | [10] 0.012 | epoxomicin -0.142 | [11] -0.131 | [1] -0.189 | [2] 0.165 | rosiglitazone 0.008 | [12] -0.066 | [3] -0.003

MYH2 (UniProt Q9UKX2)
inactive: [6] -0.059 | barasertib 0.266 | [7] 0.789 | rosiglitazone 0.034 | [12] -0.159
